Test results published in patent US20160046678A1 (ZYNGENIA, published 2016).
No constants are given. Whether binding was seen depends on the method and setting. Some binding calls cover weakened binding; strength is not graded here.

Amino acid sequences for entries named in this document (tags omitted). Residues count along the entry.
UniProt P08887, residues 20-358: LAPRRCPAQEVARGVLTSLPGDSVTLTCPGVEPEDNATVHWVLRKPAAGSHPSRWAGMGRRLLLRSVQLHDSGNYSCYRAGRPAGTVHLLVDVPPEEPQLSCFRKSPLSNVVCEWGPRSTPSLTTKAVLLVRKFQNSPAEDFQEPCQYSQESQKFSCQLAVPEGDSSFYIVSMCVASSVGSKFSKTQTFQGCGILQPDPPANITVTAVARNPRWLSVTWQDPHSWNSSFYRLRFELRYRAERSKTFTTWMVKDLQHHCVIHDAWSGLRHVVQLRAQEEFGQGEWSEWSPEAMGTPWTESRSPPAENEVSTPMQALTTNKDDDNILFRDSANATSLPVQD

Target: IL6R (UniProt P08887)
Test: peptide selection, Example 48

Binder	binding
SELILCALEMVFNECHGAV [ILC96]	binds
SDLVLCEWDMVVRECHGVF [ILC97]	binds
SDLIWCELDMVFRECHGAA [ILC99]	binds
SSFVFCDLEMVFRECHGVF [ILC102]	binds
SDLILCNLEMVFKECHGVI [ILC103]	binds
SSLILCDLEMVFKECHGVL [ILC106]	binds
SEIVLCEWAMVLAECHGAA [ILC108]	binds
SRCDRVLGTHINL [ILC144]	binds
SHEEWTCFPYLCTFWAE [ILC164]	binds
SEEEWTCFPYLCSIWLE [ILC165]	binds
SQEEWTCFPYLCSYWLE [ILC166]	binds
SQEEWTCFPYLCSFWSE [ILC167]	binds
SHEEWTCFPYLCKYWLH [ILC169]	binds
SHEDWTCFPYLCKVLLH [ILC170]	binds
SHEEWTCFPYLCENWLH [ILC171]	binds
SEEEWTCFPYLCTDWVH [ILC172]	binds
SEEEWTCFPYLCTILLQ [ILC173]	binds
SDEEWTCFPYLCSVWVE [ILC174]	binds
SEEEWTCFPYLCSYLLH [ILC175]	binds
SHEDWTCFPYLCKYLLD [ILC176]	binds
SQEEWTCFPYLCREWVE [ILC177]	binds
SDEEWTCFPYLCSQWVE [ILC178]	binds
SEEEWTCFPYLCREWAH [ILC179]	binds
SEEEWTCFPYLCSYWLD [ILC180]	binds

Binder	binding
SEEEWTCFPYLCSQWLE [ILC181]	binds
SEEEWTCFPYLCTNWLH [ILC182]	binds
SHEDWTCFPYLCRILVE [ILC183]	binds
SDEEWTCFPSLCTQLLQ [ILC184]	binds
SEEDWTCFPYLCRILVE [ILC185]	binds
SHEEWTCFPYLCGKWAE [ILC186]	binds
SHEDWTCFPYLCSILLQ [ILC187]	binds
SHEDWTCFPYLCRVLLE [ILC189]	binds
SDEEWTCFPYLCTFWLQ [ILC190]	binds
SEEEWTCFPYLCRNWLD [ILC191]	binds
SEEEWTCFPYLCGLWVE [ILC192]	binds
SEEDWTCFPYLCRILLD [ILC193]	binds
SHEDWTCFPYLCRILSH [ILC194]	binds
SEEEWTCFPYLCTNWLD [ILC195]	binds
SEEEWTCFPYLCSDWLE [ILC196]	binds
SEEEWTCFPYLCTHWLH [ILC197]	binds
SEEEWTCFPSLCNFWSQ [ILC198]	binds
SQEEWTCFPYLCTYWLQ [ILC199]	binds
SHEEWTCFPYLCTYWSH [ILC200]	binds
SDEEWTCFPYLCSIWAQ [ILC201]	binds
SDEEWTCFPYLCSYWVD [ILC202]	binds
SHEEWTCFPYLCRILLD [ILC203]	binds
SQEEWTCFPYLCTDWLH [ILC204]	binds
SEEEWTCFPYLCSFWLE [ILC205]	binds

Binder	binding
SHEDWTCFPYLCTLLLQ [ILC206]	binds
SHEDWTCFPYLCNILLQ [ILC207]	binds
SEEEWTCFPYLCSHWAE [ILC208]	binds
SHEEWTCFPYLCKILLE [ILC209]	binds
SQEEWTCFPYLCSYWLQ [ILC210]	binds
SEEEWTCFPYLCSIWLD [ILC211]	binds
SHEEWTCFPTLCTDWLQ [ILC212]	binds
SEEEWTCFPSLCTIWLQ [ILC213]	binds
SHEEWTCFPYLCSDWLQ [ILC214]	binds
SEEEWTCFPYLCSLWVD [ILC215]	binds
SHEEWTCFPYLCSVWAQ [ILC216]	binds
SHEEWTCFPYLCSLWAQ [ILC218]	binds
SDEEWTCFPTLCTDWLQ [ILC219]	binds
SQEEWTCFPYLCSHWLD [ILC220]	binds
SEAEWTCFPYLCSDWLH [ILC221]	binds
SEEEWTCFPYLCGQWVE [ILC222]	binds
SDEEWTCFPSLCSFWLE [ILC223]	binds
SEEEWTCFPYLCTLWSQ [ILC224]	binds
SDEEWTCFPTLCSLWSE [ILC225]	binds
SDEEWTCFPSLCSFWLD [ILC226]	binds
SQEEWTCFPYLCTDWVQ [ILC227]	binds
SEEEWTCFPYLCSILVD [ILC228]	binds
